According to the supplement of paper PMC3334620:
The full ranking holds about 33,000 sequences; the median of “E-score (-0.5 to 0.5)” is about -0.0059, and the highest 2% start at about 0.26. The list shows a part of the results.

Target: T1, Cin5 (UniProt P40917)
T1 sequence: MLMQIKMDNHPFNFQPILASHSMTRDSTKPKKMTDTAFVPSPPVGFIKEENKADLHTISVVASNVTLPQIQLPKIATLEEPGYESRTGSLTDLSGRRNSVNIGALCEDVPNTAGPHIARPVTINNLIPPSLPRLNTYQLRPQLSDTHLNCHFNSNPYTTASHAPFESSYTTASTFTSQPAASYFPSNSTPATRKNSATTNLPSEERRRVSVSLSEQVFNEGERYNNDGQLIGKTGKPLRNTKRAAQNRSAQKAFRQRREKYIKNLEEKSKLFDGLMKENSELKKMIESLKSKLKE
Assay: PBM E-score (8-mer binding enrichment) (E-score (-0.5 to 0.5)); higher = stronger / more preferred TF binding
Conditions: protein concentration: 100 nM; construct: GST-full length
Outline: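 GST-tagged yeast TFs (full-length or DNA-binding domain) were made by PURExpress in vitro transcription/translation and applied at about 100-200 nM to universal all-10-mer Agilent arrays. The arrays were made double-stranded by primer extension, on fresh or once-stripped slides. Bound protein was detected with fluorescent anti-GST, and scans were normalised with masliner. Each ungapped eight-base word, pooled with its reverse complement, received an E-score (modified Wilcoxon-Mann-Whitney statistic) from the Universal PBM Analysis Suite.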

| Sequence | PBM E-score |
| --- | --- |
| CGTAGAAC | -0.251 |
| AACTCACC | 0.0692 |
| ACAATCTC | 0.0307 |
| GAAAAATC | 0.154 |
| CTGTCTAC | 0.0024 |
| GACGTTTA | 0.0501 |
| ACTGGCCG | -0.174 |
| AGGATGTA | 0.166 |
| GTCCTGGA | -0.264 |
| ACCTGTAT | 0.0163 |
| AAAATCGG | 0.0238 |
| GACGATGA | -0.101 |
| CCGCGTTC | 0.0509 |
| AGCGGTAG | -0.15 |
| CAGGGGGC | -0.383 |
| GCCCGCGA | -0.00677 |
| CTTCTCCA | -0.0877 |
| AGTTCCCA | 0.147 |
| AGGGTCCG | -0.218 |
| ACAGGTGA | 0.152 |
| CATATCGG | -0.0521 |
| TGTGTCAA | -0.0182 |
| CAGGACGC | -0.18 |
| CAAATATA | 0.166 |

| Sequence | PBM E-score |
| --- | --- |
| CGCGATGC | -0.288 |
| GGCCGCGA | -0.196 |
| AGGAATTG | 0.148 |
| CAGCTGAA | 0.0137 |
| ATCCCGGG | 0.0898 |
| CCGAGTAG | 0.146 |
| ATCTCCGA | 0.138 |
| TCTTCACA | -0.00388 |
| CGCACAAC | 0.0596 |
| ATGAAGCC | 0.126 |
| ACTGAGTC | 0.0257 |
| GTGATATA | 0.0895 |
| CACCTAGC | -0.172 |
| TGTCACAA | 0.146 |
| CTTACCAA | 0.286 |
| CTATACCC | -0.0148 |
| ACTAACCT | 0.147 |
| AATGAATA | 0.15 |
| GTACCGCA | 0.0528 |
| CGGACGAG | -0.134 |
| GCCTGTCC | -0.207 |
| CCAACACG | 0.0425 |
| GATGCTGA | -0.139 |
| ACGGAAAG | 0.245 |

| Sequence | PBM E-score |
| --- | --- |
| GACGCTAC | -0.0265 |
| CTACTAGC | 0.109 |
| ACGACCCC | -0.0873 |
| GGCCCCCA | -0.485 |
| ACTCAAAC | 0.034 |
| GGGGGGTA | -0.487 |
| AACAATTG | 0.0983 |
| GACTTACC | -0.0423 |
| CTCAGCGC | 0.0746 |
| ACAACAGT | 0.0785 |
| AACGGCAT | 0.237 |
| CAGATGAC | -0.0913 |
| TCCGCAGA | -0.0763 |
| ATCCGCGC | -0.0165 |
| AATCTCGG | 0.0258 |
| GATCAACA | -0.0699 |
| CGTGAGAC | 0.00946 |
| CACGAGCA | -0.0126 |
| AAACCTGG | -0.039 |
| CCCTCAGC | -0.0662 |
| AAATCACG | 0.152 |
| CCCGCGGC | 0.0548 |
| GGCCTCAA | -0.0254 |
| AGCCCCGG | -0.151 |

| Sequence | PBM E-score |
| --- | --- |
| CATACATG | 0.112 |
| CTCCAAGC | -0.0875 |
| GGGCGCGA | 0.0157 |
| AGAGGAAG | -0.174 |
| CAGCCTCC | -0.28 |
| ACTCGCAA | -0.0176 |
| ATGTTACG | -0.125 |
| GGGTTTTA | 0.0599 |
| ACGCCCGG | -0.178 |
| CTTTACTC | 0.191 |
| CGGGGCTA | -0.18 |
| AAGTCTTG | -0.119 |
| AAAAGCTA | 0.0723 |
| ATAAAGTA | 0.264 |
| CACCCTCA | -0.126 |
| AGTACCCA | 0.00962 |
| CTGCTCCC | -0.161 |
| TCCTTAAA | -0.0659 |
| AGCATCGA | 0.0188 |
| AACATCTT | -0.0627 |
| TGTGCGAA | -0.133 |
| ATGCAAGA | 0.127 |

Copied from the list.
Entry of CACCCTCA under PBM E-score: -0.126
Entry of TGTGCGAA under PBM E-score: -0.133
Entry of AGCATCGA under PBM E-score: 0.0188
Entry of CATACATG under PBM E-score: 0.112
Entry of AAAAGCTA under PBM E-score: 0.0723
